Source: article PMC10359635
Construct, isoform or probe ends are uncertain for at least one entry. No signal at the amounts used counts as a negative.

Sequences of proteins named here, by UniProt entry; tags and fusion partners are left off. A change or cut given only in a name is not applied to a line headed by its entry.
UniProt P0A6Y8: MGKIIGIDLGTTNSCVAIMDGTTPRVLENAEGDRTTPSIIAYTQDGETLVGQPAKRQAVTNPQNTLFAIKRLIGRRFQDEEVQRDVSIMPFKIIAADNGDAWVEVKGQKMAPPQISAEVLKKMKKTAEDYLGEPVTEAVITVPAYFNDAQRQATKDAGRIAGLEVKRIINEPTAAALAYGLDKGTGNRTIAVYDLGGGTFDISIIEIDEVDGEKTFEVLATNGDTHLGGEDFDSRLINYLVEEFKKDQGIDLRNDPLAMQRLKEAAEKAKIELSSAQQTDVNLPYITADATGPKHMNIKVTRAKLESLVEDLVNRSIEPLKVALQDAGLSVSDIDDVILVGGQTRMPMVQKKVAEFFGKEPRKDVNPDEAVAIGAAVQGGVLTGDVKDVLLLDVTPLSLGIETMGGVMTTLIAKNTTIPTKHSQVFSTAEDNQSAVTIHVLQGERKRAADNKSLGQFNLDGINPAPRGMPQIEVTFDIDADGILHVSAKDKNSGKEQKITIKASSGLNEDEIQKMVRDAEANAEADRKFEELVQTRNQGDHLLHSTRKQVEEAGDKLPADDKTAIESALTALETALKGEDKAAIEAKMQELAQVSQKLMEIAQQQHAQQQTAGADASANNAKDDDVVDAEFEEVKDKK

Target: DnaK (Escherichia coli (K-12 MG1655)) (UniProt P0A6Y8)
Experiment: EMSA
Settings: mixed with fork; EMSA: 20 nM Cy5 fork, 20 mM Tris pH 8.0, 0.1 mg/ml BSA, 7% glycerol (25% after DnaK addition); proteins diluted in 20 mM Tris pH 8.0, 100 mM NaCl, 1 mM DTT; recombinant protein; protein details: N-terminal 6xHis; label: 5'-Cy5; single-stranded DNA

Sequence: CAACGTCATAGACGATTACATTGCTACATGGAGCTGTCTAGAGGATCCGA [Cy5-ssDNA (MW14)]
- binding result: no binding
